Laboratory results reported in publication PMC8110956, “An infection-induced RhoB-Beclin 1-Hsp90 complex enhances clearance of uropathogenic Escherichia coli” (Nature Communications, 2021).
These are yes or no findings as the source states them, for the method shown. For part of these data: Binding calls can cover weak binding; strength is not graded here. For part of these data: Binding seen in cells or lysates may run through a third protein.

The chains behind the UniProt entries cited, without tags or fusion partners. Where a name states a change or a piece, a line headed by the entry shows the natural chain unless it says otherwise.
UniProt P62745: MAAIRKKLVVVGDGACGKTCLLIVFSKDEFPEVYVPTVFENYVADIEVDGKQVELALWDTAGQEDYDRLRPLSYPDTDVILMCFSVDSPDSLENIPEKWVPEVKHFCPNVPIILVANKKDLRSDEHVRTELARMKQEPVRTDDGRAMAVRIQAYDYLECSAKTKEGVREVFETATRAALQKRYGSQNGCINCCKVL
UniProt Q14457: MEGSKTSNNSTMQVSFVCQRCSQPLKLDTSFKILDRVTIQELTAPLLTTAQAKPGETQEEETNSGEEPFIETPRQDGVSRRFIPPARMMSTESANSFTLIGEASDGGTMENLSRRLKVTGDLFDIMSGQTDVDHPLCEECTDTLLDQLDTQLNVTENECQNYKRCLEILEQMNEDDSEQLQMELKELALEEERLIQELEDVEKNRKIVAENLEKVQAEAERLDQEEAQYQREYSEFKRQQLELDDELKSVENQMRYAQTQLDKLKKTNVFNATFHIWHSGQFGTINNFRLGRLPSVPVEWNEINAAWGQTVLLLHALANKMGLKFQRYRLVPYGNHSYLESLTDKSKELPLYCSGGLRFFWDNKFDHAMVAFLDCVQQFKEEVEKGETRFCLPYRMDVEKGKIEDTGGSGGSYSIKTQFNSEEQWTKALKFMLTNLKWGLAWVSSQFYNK

Columns and labels:
[1] = target: 3×FLAG-RhoB (wild type) (human) (UniProt P62745); experiment: co-IP; HEK293 co-transfected with MYC-Beclin 1 and FLAG- or 3×FLAG-RhoB constructs, 48 h; lysate (50 mM Tris-HCl pH 7.4, 150 mM NaCl, 1% NP-40) on anti-FLAG or anti-c-MYC beads overnight at 4 °C, eluted with 3×FLAG or c-MYC peptide; western blot
FLAG-RhoB-C193S (human) = FLAG-RhoB-C193S (human) (UniProt P62745); experiment: as above
GST-fused RhoB (human) = GST-fused RhoB (human) (UniProt P62745); experiment: pull-down; about 1 μg of each purified GST-fused protein combined in 0.8% BSA in PBS at 4 °C overnight; precipitated with anti-RhoB or anti-Beclin 1 antibody (IgG as control) plus protein G Sepharose; western blot; both purified
GST-fused Beclin 1 = target: T1, GST-fused Beclin 1 (human, UniProt Q14457 1-450); experiment: as above
T1 construct: Beclin 1, in pGEX4T-3; also called GST-Beclin 1; source: E. coli BL21 (DE3), purified (Glutathione Sepharose 4B)

[2] = target: MYC-tagged Beclin 1 (human) (UniProt Q14457); experiment: co-IP; HEK293 co-transfected with MYC-Beclin 1 and FLAG- or 3×FLAG-RhoB constructs, 48 h; lysate (50 mM Tris-HCl pH 7.4, 150 mM NaCl, 1% NP-40) on anti-FLAG or anti-c-MYC beads overnight at 4 °C, eluted with 3×FLAG or c-MYC peptide; western blot

Substance	binding [1]	further results
MYC-Beclin 1 (1–244) (from UniProt Q14457 1-244) (domain or fragment)	binds	
MYC-tagged Beclin 1 (from UniProt Q14457 1-450)	binds	binding (FLAG-RhoB-C193S (human)): no binding
MYC-Beclin 1 (150–450) (from UniProt Q14457 150-450) (domain or fragment)	binds	
GST-Beclin 1 (88–450) (from UniProt Q14457 88-450) (domain or fragment)		binding (GST-fused RhoB (human)): binds
GST-Beclin 1 (150–450) (from UniProt Q14457 150-450) (domain or fragment)		binding (GST-fused RhoB (human)): binds
MYC-Beclin 1 (1–88) (from UniProt Q14457 1-88) (domain or fragment)	no binding	
MYC-Beclin 1 (1–150) (from UniProt Q14457 1-150) (domain or fragment)	no binding	
GST-fused RhoB (from UniProt P62745)		binding (GST-fused Beclin 1): binds
FLAG-RhoB-C193S (from UniProt P62745)		binding [2]: no binding
GST-fused Beclin 1 (from UniProt Q14457 1-450)		binding (GST-fused RhoB (human)): binds
MYC-Beclin 1 (1–337) (from UniProt Q14457 1-337) (domain or fragment)	binds	
